Data taken from US20230211005A1.
Results are given in words; binding and its absence hold for the method and conditions named. Some entries that bind do so weakly or less than the wild type.

How the values were obtained:
[1] = target: T1, Zinc transporter ZIP4 (human) (UniProt Q6P5W5); experiment: surface immunostaining of live Zip4-RWP1 cells, 50 ug/ml antibody, 1 h at 37 C, confocal microscopy
T1 sequence (looked up): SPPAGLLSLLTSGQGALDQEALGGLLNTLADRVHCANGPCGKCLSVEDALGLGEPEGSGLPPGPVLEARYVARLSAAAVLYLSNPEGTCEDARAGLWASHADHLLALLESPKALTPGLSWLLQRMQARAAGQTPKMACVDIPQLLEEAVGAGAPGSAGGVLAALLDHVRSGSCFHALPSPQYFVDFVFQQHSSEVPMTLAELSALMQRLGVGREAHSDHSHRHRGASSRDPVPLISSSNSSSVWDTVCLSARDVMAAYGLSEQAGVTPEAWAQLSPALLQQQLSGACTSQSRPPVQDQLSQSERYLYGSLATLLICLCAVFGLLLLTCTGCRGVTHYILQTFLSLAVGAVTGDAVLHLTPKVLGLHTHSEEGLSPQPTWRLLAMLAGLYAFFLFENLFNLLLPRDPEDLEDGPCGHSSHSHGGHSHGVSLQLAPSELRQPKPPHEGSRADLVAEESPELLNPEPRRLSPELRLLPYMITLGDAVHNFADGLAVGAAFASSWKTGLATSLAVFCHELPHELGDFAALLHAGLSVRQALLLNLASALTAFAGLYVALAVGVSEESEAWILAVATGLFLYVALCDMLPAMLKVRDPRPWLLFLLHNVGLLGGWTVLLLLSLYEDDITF

[2] = target: T1, Zinc transporter ZIP4 (human); experiment: western blot, lysates of Zip4-RWP1 cells vs control RWP1 cells
[3] = target: T1, Zinc transporter ZIP4 (human); experiment: western blot and surface immunostaining, Zip4 expressing RWP1 cells (figure legend)

Measured: binding

B1: Antibody 1 (clone 33), monoclonal antibody anti Zip4 (antibody, V domains shown)
VH: EVKLQESGPSLVKPSQSLSLTCSVTGYSITSAYYWNWIRQFPGNKLEWMGYIAYDGGNNYNPSLKNRISITRDTSKNQFFLKLNSVTTEDTATYYCVRDWSRAMDYWGQGTSVTVSS
VL: DIMLTQSPLSLPVSLGDQASISCRSSQSLVHSTGNTYLHWYLQKPGQSPKLLIYKVSSRFSGVPDRFSGSGSGTDFTLRISRVEADDLGVYFCSQTTHVPLTFGAGTKLELK
binds: [1] | [2] | [3]

B2: Antibody 2 (clone 62), monoclonal antibody anti Zip4 (antibody, V domains shown)
VH: B1 VH
VL: DIVLTQSPAIMSASPGEKVTITCSASSSVSYLHWFQQKPGTSPKLWIYSTSNLASGVPARFSASGSGTSYSLTISRMEAEDAATYYCQQRSTYPLTFGGGTKLELK
binds: [1] | [2] | [3]
